Data on one substance can be found in article PMC11225310.

Amino acid sequences for entries named in this document (tags omitted).
UniProt Q14680: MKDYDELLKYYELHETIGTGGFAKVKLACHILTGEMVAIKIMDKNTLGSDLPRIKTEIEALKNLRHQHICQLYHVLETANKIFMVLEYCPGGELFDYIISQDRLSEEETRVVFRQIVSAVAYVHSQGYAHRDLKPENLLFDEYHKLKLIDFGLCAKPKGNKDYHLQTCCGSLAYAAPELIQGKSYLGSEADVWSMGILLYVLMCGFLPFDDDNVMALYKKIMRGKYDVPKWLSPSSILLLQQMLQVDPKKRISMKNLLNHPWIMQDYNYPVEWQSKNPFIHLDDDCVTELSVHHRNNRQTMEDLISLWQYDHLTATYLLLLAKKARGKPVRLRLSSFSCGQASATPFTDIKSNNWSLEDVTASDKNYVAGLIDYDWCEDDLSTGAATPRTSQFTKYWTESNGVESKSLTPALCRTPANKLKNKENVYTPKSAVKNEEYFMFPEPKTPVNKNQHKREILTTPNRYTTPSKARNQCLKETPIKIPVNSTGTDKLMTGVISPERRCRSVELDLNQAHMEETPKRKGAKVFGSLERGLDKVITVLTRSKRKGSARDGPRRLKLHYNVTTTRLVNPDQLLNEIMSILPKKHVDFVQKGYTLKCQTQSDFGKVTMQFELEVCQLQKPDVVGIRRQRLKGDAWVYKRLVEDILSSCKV
UniProt P40763: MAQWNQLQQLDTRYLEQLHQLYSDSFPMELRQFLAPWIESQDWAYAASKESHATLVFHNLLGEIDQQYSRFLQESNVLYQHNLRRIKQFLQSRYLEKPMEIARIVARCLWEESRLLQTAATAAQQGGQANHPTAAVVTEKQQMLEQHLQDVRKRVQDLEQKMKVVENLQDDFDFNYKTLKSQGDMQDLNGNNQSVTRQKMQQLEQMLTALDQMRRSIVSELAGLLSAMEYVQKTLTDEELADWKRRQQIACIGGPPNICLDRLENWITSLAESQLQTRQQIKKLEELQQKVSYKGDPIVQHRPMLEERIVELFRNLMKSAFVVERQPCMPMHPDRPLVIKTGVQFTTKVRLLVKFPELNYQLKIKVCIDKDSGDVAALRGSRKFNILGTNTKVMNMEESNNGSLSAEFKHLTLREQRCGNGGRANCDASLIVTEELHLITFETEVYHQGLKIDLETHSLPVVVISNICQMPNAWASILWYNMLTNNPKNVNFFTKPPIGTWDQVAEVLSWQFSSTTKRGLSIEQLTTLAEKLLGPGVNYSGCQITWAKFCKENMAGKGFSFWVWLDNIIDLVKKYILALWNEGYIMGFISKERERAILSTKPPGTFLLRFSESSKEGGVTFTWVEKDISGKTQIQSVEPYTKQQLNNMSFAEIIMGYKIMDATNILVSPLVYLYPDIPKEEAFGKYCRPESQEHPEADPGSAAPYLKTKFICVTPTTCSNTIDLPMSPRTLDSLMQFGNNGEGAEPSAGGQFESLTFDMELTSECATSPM

The test addresses FLAG-tagged MELK (UniProt Q14680). The experiment in a line: affinity purification with mass spectrometry; lysate of 293T cells expressing FLAG-MELK on a FLAG column, 4 °C for 4 h; IP buffer (20 mM Tris-HCl pH 8.0, 150 mM NaCl, 2 mM EDTA, 1% Nonidet P-40); eluted with FLAG peptides; SDS-PAGE, silver staining, LC-MS/MS of gel bands; compared with vector-transfected cells.

No constants are given. Whether binding was seen depends on the method and setting. Binding seen in cells or lysates may run through a third protein. A yes stands for co-enrichment or nearness to the bait. Other partners may have been found.

“STAT3 (in 293T cells) (from UniProt P40763 1-770)”: the binding result was “binds”.
